From article PMC12013929
Results are given in words; binding and its absence hold for the method and conditions named. A result given as binding can be weak or reduced; the word gives no strength.

Target: IpaH4 bait (yeast two-hybrid) (Shigella flexneri)
Assay: two-hybrid; two yeast two-hybrid screens with IpaH4 bait and human prey

B1: human RNF214 yeast two-hybrid prey clones (central region, a.a. 276-504) (domain or fragment, UniProt Q8ND24 276-504)
chain: LKAIQDVTIKREETKKKIEKEKKEFLQKEQDLKAEIEKLCEKGRREVWEMELDRLKNQDGEINRNIMEETERAWKAEILSLESRKELLVLKLEEAEKEAELHLTYLKSTPPTLETVRSKQEWETRLNGVRIMKKNVRDQFNSHIQLVRNGAKLSSLPQIPTPTLPPPPSETDFMLQVFQPSPSLAPRMPFSIGQVTMPMVMPSADPRSLSFPILNPALSQPSQPSSPLP
  binding: binds
